Results reported in publication PMC10289747.
Results are given in words; binding and its absence hold for the method and conditions named. For some assays here: Binding seen in cells or lysates may run through a third protein. Some entries that bind do so weakly or less than the wild type.

By UniProt entry, the sequences of proteins in these tests, tags left out.
UniProt P28574: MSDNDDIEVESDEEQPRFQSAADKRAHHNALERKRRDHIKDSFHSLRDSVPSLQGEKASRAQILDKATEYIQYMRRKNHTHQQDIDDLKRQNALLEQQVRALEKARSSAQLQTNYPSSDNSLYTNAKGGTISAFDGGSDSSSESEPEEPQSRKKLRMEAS
UniProt P61244: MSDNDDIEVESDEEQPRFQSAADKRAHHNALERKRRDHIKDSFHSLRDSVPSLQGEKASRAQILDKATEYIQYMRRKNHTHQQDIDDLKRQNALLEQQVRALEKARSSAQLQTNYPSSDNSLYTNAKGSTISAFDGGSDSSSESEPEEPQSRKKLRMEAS
UniProt Q02248: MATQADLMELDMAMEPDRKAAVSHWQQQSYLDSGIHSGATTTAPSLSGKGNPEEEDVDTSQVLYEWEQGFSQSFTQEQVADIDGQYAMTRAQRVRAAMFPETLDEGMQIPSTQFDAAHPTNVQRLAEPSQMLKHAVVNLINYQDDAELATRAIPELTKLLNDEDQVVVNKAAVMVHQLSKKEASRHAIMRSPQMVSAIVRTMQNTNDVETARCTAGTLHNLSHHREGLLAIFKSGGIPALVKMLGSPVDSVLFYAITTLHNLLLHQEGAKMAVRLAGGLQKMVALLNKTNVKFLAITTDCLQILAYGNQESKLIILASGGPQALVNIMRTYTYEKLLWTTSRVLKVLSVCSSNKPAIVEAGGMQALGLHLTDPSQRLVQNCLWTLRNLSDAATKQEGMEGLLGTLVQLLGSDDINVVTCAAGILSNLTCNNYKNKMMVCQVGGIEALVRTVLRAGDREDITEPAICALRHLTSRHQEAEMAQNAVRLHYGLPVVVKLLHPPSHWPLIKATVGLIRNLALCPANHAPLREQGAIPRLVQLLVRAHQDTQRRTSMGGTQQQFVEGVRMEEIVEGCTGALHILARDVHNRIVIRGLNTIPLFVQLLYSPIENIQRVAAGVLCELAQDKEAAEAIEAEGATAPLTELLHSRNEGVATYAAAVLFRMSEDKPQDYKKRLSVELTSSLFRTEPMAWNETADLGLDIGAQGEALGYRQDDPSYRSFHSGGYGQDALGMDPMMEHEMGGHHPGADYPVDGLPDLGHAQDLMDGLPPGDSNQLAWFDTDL
UniProt P35222: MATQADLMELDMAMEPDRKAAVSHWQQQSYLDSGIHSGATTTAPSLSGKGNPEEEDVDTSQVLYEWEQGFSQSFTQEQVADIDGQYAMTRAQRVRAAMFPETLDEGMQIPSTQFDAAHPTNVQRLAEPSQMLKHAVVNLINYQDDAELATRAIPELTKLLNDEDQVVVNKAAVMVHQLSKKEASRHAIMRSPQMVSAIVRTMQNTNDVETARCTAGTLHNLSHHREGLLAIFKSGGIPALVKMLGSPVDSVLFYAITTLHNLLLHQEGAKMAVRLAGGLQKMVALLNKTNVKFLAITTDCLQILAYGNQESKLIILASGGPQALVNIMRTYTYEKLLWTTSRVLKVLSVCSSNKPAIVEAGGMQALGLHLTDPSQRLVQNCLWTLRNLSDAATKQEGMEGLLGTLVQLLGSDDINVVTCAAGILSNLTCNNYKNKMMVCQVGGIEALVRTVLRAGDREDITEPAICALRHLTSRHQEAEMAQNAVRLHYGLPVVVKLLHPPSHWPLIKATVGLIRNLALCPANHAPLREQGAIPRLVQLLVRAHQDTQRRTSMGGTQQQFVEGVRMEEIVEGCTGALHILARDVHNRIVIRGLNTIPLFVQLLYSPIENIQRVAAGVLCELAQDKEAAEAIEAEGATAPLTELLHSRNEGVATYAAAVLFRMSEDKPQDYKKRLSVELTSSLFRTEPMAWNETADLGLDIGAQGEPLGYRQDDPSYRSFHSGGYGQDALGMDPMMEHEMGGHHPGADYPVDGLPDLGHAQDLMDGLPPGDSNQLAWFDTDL
UniProt P63158: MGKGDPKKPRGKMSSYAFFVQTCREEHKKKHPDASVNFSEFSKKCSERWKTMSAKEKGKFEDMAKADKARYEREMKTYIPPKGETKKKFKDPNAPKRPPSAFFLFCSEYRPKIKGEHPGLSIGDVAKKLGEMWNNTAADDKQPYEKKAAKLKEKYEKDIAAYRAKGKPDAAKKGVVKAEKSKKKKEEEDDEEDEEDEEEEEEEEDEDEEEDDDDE

Experiments:
[1] = biological target: MAX (MYC-associated factor X), mouse, endogenous (mouse (endogenous in mouse liver)) (UniProt P28574); experiment: co-IP; anti-MAX antibody, then western blotting; cytoplasm and nucleus from CCA and normal mouse liver
[2] = biological target: MAX (MYC-associated factor X), mouse, endogenous (mouse (endogenous in mouse liver)) (UniProt P28574); experiment: co-IP; cholangiocytes isolated from CCA and control mouse liver, then western blotting
[3] = biological target: MAX (MYC-associated factor X), human, endogenous (human (endogenous in human liver, H69, MzChA-1)) (UniProt P61244); experiment: co-IP; human CCA and normal human liver lysates, then western blotting
[4] = biological target: MAX (MYC-associated factor X), human, endogenous (human (endogenous in human liver, H69, MzChA-1)) (UniProt P61244); experiment: native gel or EMSA; probe with double TCFs/LEF1 element of the IL-6 promoter; nuclear proteins from H69, normal human liver, MzChA-1 and human CCA liver; antibodies added, IgG and probe only as controls
[5] = biological target: MAX (MYC-associated factor X), human, endogenous (human (endogenous in human liver, H69, MzChA-1)) (UniProt P61244); experiment: native gel or EMSA; labeled probes with 2 E-box elements of the HMGB1 promoter; nuclear proteins from H69, normal human liver, MzChA-1 and human CCA liver; antibodies added, IgG and probe only as controls
recombinant MAX = recombinant MAX (UniProt P61244); experiment: pull-down; recombinant MAX and β-catenin with specific antibodies immobilized to A/G beads, in vitro; both purified

Substance | binding [1] | binding [2] | other results
β-catenin (catenin beta-1), mouse, endogenous (from UniProt Q02248 1-781) | binds | binds | –
β-catenin (catenin beta-1), human, endogenous (from UniProt P35222 1-781) | – | – | binding [3]: binds; binding [4]: binds; binding [5]: binds
High-mobility group box-1 (HMGB1), mouse, endogenous (from UniProt P63158 1-215) | binds | binds | –
recombinant β-catenin (from UniProt P35222 1-781) | – | – | binding (recombinant MAX): binds
